Test results reported in article doi:10.1101/2025.11.01.685996.
Results are given in words; binding and its absence hold for the method and conditions named. In cells and extracts the contact can be indirect. Some results given as binding are weak or reduced against the parent protein; the word gives no strength.

Sequences of proteins named here, by UniProt entry; tags and fusion partners are left off. A change or cut given only in a name is not applied to a line headed by its entry. A line that says so, or that is headed by a name, gives the form on record, which may keep a tag or linker.
UniProt P21730: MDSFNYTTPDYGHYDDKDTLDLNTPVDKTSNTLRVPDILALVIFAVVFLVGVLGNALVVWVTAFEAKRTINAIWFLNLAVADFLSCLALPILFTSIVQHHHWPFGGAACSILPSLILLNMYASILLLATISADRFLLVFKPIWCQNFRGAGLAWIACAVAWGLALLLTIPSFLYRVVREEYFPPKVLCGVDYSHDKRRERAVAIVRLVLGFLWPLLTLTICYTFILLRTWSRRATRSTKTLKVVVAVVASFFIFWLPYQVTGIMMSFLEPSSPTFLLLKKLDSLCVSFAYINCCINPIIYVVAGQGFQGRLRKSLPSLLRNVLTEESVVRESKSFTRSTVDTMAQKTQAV
UniProt Q9P296: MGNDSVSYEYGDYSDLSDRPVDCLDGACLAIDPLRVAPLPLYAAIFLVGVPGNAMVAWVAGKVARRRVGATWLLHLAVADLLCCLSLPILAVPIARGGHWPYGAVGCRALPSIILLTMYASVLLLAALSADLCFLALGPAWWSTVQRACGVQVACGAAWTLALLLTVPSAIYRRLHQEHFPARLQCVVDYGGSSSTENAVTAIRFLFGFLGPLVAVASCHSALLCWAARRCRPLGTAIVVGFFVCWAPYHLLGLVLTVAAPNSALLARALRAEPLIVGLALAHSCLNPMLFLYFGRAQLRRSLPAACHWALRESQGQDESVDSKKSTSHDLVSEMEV
human C5aR2 mutant Arg(5.42) to alanine (Q9P296, form named): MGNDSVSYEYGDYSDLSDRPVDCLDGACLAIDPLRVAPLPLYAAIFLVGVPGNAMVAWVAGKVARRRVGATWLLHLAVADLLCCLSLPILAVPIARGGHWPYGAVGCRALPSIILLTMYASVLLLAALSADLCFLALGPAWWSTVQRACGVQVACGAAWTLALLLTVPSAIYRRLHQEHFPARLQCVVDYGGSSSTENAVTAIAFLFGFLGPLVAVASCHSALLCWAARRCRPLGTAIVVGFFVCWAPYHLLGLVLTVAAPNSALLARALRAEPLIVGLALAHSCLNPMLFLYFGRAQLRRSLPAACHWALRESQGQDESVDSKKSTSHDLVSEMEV
UniProt P49407: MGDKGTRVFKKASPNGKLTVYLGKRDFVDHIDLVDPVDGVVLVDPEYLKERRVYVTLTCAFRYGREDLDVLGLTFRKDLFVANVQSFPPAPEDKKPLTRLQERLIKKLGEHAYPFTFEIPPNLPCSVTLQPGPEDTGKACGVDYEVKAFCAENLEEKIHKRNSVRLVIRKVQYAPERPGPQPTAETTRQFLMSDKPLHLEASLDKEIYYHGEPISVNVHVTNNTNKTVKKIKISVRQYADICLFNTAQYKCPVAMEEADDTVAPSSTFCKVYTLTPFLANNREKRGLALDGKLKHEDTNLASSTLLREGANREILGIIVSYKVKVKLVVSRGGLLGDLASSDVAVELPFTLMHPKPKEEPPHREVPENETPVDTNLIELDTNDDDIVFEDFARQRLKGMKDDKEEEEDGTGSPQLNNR
UniProt P32121: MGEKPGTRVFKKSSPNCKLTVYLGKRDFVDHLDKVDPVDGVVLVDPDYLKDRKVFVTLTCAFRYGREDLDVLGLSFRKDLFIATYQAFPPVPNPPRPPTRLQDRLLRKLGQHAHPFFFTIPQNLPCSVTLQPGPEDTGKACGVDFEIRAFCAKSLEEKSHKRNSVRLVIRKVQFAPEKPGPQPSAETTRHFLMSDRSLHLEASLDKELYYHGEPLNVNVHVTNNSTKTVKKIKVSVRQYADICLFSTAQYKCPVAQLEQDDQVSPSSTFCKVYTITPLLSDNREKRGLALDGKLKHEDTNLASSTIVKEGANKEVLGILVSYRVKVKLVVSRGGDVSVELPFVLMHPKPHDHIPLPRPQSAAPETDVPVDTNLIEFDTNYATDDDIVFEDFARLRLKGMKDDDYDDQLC

Key:
[1] = molecular target: T1, human C3aR with C-terminal SmBiT (hC3aR) (human) (UniProt Q16581); test: split reporter
T1 sequence: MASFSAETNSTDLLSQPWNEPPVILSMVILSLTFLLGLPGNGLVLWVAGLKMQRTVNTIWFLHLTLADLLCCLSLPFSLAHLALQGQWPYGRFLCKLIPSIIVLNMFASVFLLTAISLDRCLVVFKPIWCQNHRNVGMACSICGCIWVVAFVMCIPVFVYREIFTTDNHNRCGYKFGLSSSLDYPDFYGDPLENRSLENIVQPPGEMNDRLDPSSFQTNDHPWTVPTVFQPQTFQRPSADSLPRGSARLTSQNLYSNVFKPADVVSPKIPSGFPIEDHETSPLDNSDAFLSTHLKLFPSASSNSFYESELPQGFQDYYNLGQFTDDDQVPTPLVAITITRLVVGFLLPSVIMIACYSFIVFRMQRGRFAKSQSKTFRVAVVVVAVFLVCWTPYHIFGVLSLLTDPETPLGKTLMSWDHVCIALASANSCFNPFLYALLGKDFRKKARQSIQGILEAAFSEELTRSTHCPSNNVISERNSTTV

[2] = molecular target: human C5aR1 with C-terminal SmBiT (hC5aR1-SmBiT) (human) (UniProt P21730); test: split reporter
[3] = molecular target: human C5aR2 mutant Arg(5.42) to alanine (human) (UniProt Q9P296); test: split reporter
[4] = molecular target: human C5aR2 with C-terminal SmBiT (hC5aR2-SmBiT) (human) (UniProt Q9P296); test: split reporter
[5] = molecular target: T2, mouse C5aR1 with C-terminal SmBiT (mC5aR1-SmBiT) (mouse) (UniProt P30993); test: split reporter
T2 sequence: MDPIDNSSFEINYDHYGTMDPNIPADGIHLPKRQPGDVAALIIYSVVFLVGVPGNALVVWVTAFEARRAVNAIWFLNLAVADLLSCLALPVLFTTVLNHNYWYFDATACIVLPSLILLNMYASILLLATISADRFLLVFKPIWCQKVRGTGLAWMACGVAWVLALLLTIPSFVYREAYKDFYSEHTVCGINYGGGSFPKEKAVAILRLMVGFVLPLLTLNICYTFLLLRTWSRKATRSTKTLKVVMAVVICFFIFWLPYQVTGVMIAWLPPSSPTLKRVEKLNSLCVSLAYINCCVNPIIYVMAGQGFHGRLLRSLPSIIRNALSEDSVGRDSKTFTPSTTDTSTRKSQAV

[6] = molecular target: T3, mouse C5aR2 with C-terminal SmBiT (mC5aR2-SmBiT) (mouse) (UniProt Q8BW93); test: split reporter
T3 sequence: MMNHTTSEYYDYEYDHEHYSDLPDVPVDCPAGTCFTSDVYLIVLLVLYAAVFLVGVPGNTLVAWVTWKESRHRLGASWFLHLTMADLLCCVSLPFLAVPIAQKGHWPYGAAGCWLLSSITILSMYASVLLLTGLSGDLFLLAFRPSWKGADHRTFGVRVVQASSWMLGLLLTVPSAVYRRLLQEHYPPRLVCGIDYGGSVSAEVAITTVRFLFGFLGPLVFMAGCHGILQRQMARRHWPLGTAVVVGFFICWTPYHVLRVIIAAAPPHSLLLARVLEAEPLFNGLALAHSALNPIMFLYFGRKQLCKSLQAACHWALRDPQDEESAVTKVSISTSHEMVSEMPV

C5aR2-Venus = C5aR2-Venus (UniProt Q9P296); test: FRET or BRET
[7] = molecular target: human C5aR1-Rluc8 (human) (UniProt P21730); test: FRET or BRET

Measured: binding

β-arrestin 1 with N-terminal LgBiT (LgBiT-βarr1) (from UniProt P49407 1-418)
binds: [1] | [2] | [3] | [4] | [5] | [6]

β-arrestin 2 with N-terminal LgBiT (LgBiT-βarr2) (from UniProt P32121 1-409)
binds: [2] | [4] | [5] | [6]

β-arrestin 2-Rluc (from UniProt P32121 1-409)
binds: C5aR2-Venus

β-arrestin 2-Venus (from UniProt P32121 1-409)
binds: [7]
